{
  "source": "patent EP1674110A1",
  "about": "“Inhibition of bradykinin release” (NOVO NORDISK A/S, priority 1999, dated 2006)",
  "test_system": "EC monolayers",
  "assay": "Transendothelial electrical resistance (TEER) across EC monolayers",
  "format": "cell-based, human (HUVEC) or bovine (BAEC)",
  "details": "N=6",
  "note": "Not every detail of the peptide structures is certain; ends, links or a residue may be inferred. Where no end group is shown, it is not given here.",
  "data": [
    {"sequence": "SDDDWIPDIQTDPNGLSFNPISDFPDTTSPK [SDD31]", "values": [
      {"measurement": "effect on HBP-induced increase in EC permeability", "setting": "HBP 75 µg/ml, EC pre-incubated with MBK3 or PKH4 40 µg/ml, HKH20 or SDD31 3 µg/ml (30 min), aprotinin 100 µg/ml (30 min)", "value": "largely prevented"},
      {"measurement": "effect on bradykinin-induced increase in EC permeability", "setting": "bradykinin 100 nM, same pre-incubations", "value": "persisted"}
    ]}
  ]
}
